Data published in article PMC8254046.
These are yes or no findings as the source states them, for the method shown. Binding seen in cells or lysates may run through a third protein. Binding can be weak; no strength is given.

Target: dominant-negative Flag-RAB11A (S25N) (UniProt P62491)
Experiment: co-IP; lysates of HEK293 cells transfected with Flag-RAB11A (wildtype or dominant-negative) and HA-Merlin, precipitated on anti-FLAG affinity gel; HA-Merlin detected

Substance: hemagglutinin (HA)-tagged Merlin (from UniProt P35240 1-595)
- binding: binds
